# Reference: PubChem BioAssay AID1508600 (Functional Genomics Laboratory (NCATS/FGL), 2020)
# Among all 53,000 sequences or so, about 3,700 (7%) were called active.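 How the source made its calls: active means gene knockdowns whose robust z-score for IL-1 alpha signal is at least 2 or at most -2, so actives lie on both sides; inactive means the rest.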 Some of the results follow.
# Assay: Components of the Cytosolic LPS Sensing Pathway: Gene Identification via Genome-wide siRNA Screen;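 further: robust z of the log signal after scaling to non-targeting control siRNA wells of the plate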
# Details: RAW264.7 macrophages, IL-1a HTRF, actives lie on both sides, screened at 100 nM (by protocol), cells primed 5 h with Pam3CSK4 first
# Procedure, shortened: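 Read-out: IL-1a HTRF on supernatant, divided by plate negative-control median ×100, log-transformed and converted to robust z-score. Cells were RAW264.7 given 100 nM siRNA, Pam3CSK4-primed 5 hours, then LipidA-transfected 24 hour.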
row,Sequence,z-score
1,GGUGGAAUGAGGAAACAACTT against Cck,inactive: -0.945
2,GCUUAAAUCCGACGAGAAGTT against Rrm2b,inactive: -1.12
3,GGUGAUGAUGUCAUACAAATT against Cav1,active: 3.12
4,GGUUCGUAUUCUCUUGGUGTT against Ifi44l,inactive: -0.701
5,GGUUACCUAUUGGAUGACATT against Muc19,inactive: -1.43
6,GGAAUUUAGAAAAUGUGACTT against Vmn1r227,active: -2.67
7,GCUUGACAUGUCCUCAGAGTT against Lsm14b,inactive: 0.568
8,GGCUAGUGUUUUCAACAAUTT against Atp10d,inactive: -1.03
9,GGAGAAUGUAGAUGAAGCUTT against Dhrs2,inactive: 0.179
10,GGGUAUUGCUGGACAACGUTT against Col1a1,active: 3.85
11,GGUCCAUUGCUAAAGACUGTT against Tcf19,inactive: 0.0971
12,GCCUACAAGCAGGUACUAUTT against Olfr30,inactive: -1.37
13,GGCAUCCUGUCUGUUAUCUTT against Ptdss1,inactive: -1.76
14,GCAAGAUGCAGGAUUGUAATT against Gprc5d,inactive: -0.852
15,GGAAAUGUGUACAAGAACCTT against Ms4a4b,inactive: 1.83
16,GGUAGACCUAGAACAGCACTT against Ttyh2,inactive: -0.495
17,GCAUGGAAUCACGAAGUAGTT against Cwc22,inactive: -0.42
18,GGUAUCACUACUUUUUAGUTT against Eri3,inactive: -0.742
19,GGCAGAUGUGAAAAGUGCATT against Ppcdc,inactive: 0.853
20,GGAACAUUUUGAGAUUUACTT against Abca5,inactive: 1.2
21,GGAUGAGGGCGACUACUUUTT against Thy1,inactive: 1.07
22,GGUCGCUGUGAAAAUAAUATT against Mark1,inactive: 0.825
23,GGUCCCAGUCUAUGAAAACTT against Pym1,inactive: 1.81
24,GGCAGAGGAGAAAAUCAAGTT against Cux2,inactive: -0.352
25,GGACAGAGUUACCUAGGCATT against Ticrr,active: -2.81
26,GGCUUUGGACUGUAUGACCTT against Ccdc159,inactive: -0.923
27,GGAUCUUCUCUGCCUAUAUTT against Arpc1b,inactive: -1.42
28,GGAAUGUGUCUUCUCAAGUTT against A530021J07Rik,active: 2.35
29,CGAAACUACCUUCUCAAGCTT against Kdm3b,inactive: -1.6
30,GGGAAAACAGGUACGACUGTT against Odf1,inactive: -0.743

# Some of the entries so far, tab-delimited:
row	Sequence	z-score
6	GGAAUUUAGAAAAUGUGACTT against Vmn1r227	active: -2.67
7	GCUUGACAUGUCCUCAGAGTT against Lsm14b	inactive: 0.568
